PubChem BioAssay AID1259308, NCATS | 2017
Screen: 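Genes whose loss raises luciferase production in HEK293 cells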 (primary screen). System: human HEK293 embryonic kidney cells stably expressing firefly luciferase (HEK-CMV-Luc2-Hygro). Reagent: single siRNA against human genes, 0.8 pmol siRNA per well. Duration: 72 h. Measurement: 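Luciferase light (ONE-Glo) measured on one replicate plate set and viability (CellTiter-Glo) on the other, scaled to a negative control siRNA, with robust z-scores and luciferase per cell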. Reading the numbers: total luciferase, z-score: higher = more reporter protein produced. Active means: 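An siRNA counts as active if its total luciferase robust z-score exceeds 3; genes with two or more such siRNAs out of three were retested with fresh siRNAs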. Calls: active = raised luciferase; inactive = no rise.
In all, the deposit lists about 59,000 reagents; this is a part drawn at random. About 1,510 of all reagents (2.6%) were called active. 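Calls use total luciferase alone and ignore viability, so some active siRNAs may act by altering cell number.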 Entries without a mark were called inactive. Reagents against one gene are numbered here. Further read-outs or replicates are left out here. Reagent sequences are not shown.

{"gene":"HDAC6","siRNA no.":1,"total luciferase, z-score":-1.12}
{"gene":"HDAC6","siRNA no.":2,"total luciferase, z-score":-0.204}
{"gene":"HDAC6","siRNA no.":3,"total luciferase, z-score":0.119}
{"gene":"UBL5","siRNA no.":1,"total luciferase, z-score":1.76}
{"gene":"UBL5","siRNA no.":2,"total luciferase, z-score":-0.25}
{"gene":"UBL5","siRNA no.":3,"total luciferase, z-score":-0.978}
{"gene":"GOLGA6L7","siRNA no.":1,"total luciferase, z-score":0.491}
{"gene":"GOLGA6L7","siRNA no.":2,"total luciferase, z-score":0.781}
{"gene":"GOLGA6L7","siRNA no.":3,"total luciferase, z-score":1.58}
{"gene":"GOLGA6L7","siRNA no.":4,"total luciferase, z-score":0.667}
{"gene":"GOLGA6L7","siRNA no.":5,"total luciferase, z-score":2.41}
{"gene":"GOLGA6L7","siRNA no.":6,"total luciferase, z-score":1.51}
{"gene":"IFIT5","siRNA no.":1,"total luciferase, z-score":-1.11}
{"gene":"IFIT5","siRNA no.":2,"total luciferase, z-score":1.51}
{"gene":"IFIT5","siRNA no.":3,"total luciferase, z-score":2.68}
{"gene":"EVPL","siRNA no.":1,"total luciferase, z-score":-0.0852}
{"gene":"EVPL","siRNA no.":2,"total luciferase, z-score":1.44}
{"gene":"EVPL","siRNA no.":3,"total luciferase, z-score":0.193}

Continued, starting with the last 3 of the part before.
{"gene":"EVPL","siRNA no.":1,"total luciferase, z-score":-0.0852}
{"gene":"EVPL","siRNA no.":2,"total luciferase, z-score":1.44}
{"gene":"EVPL","siRNA no.":3,"total luciferase, z-score":0.193}
{"gene":"SEC14L3","siRNA no.":1,"total luciferase, z-score":-0.48}
{"gene":"SEC14L3","siRNA no.":2,"total luciferase, z-score":-0.781}
{"gene":"SEC14L3","siRNA no.":3,"total luciferase, z-score":-0.66}
{"gene":"LINGO3","siRNA no.":1,"total luciferase, z-score":-0.173}
{"gene":"LINGO3","siRNA no.":2,"total luciferase, z-score":1.29}
{"gene":"LINGO3","siRNA no.":3,"total luciferase, z-score":0.927}
{"gene":"SPOUT1","siRNA no.":1,"total luciferase, z-score":0.00112}
{"gene":"SPOUT1","siRNA no.":2,"total luciferase, z-score":-2.11}
{"gene":"SPOUT1","siRNA no.":3,"total luciferase, z-score":-0.144}
{"gene":"CHST13","siRNA no.":1,"total luciferase, z-score":0.486}
{"gene":"CHST13","siRNA no.":2,"total luciferase, z-score":-0.158}
{"gene":"CHST13","siRNA no.":3,"total luciferase, z-score":-0.645}
{"gene":"LPAR1","siRNA no.":1,"total luciferase, z-score":0.932}
{"gene":"LPAR1","siRNA no.":2,"total luciferase, z-score":-0.488}
{"gene":"LPAR1","siRNA no.":3,"total luciferase, z-score":2.62}
